Assay results as given in the supplement of paper PMC12819154, “High-throughput peptide-centric local stability assay extends protein–ligand identification to membrane proteins, tissues and bacteria” (Nature Structural & Molecular Biology, 2025).
The other results are listed elsewhere or left out. Most entries show no effect beyond the scatter of the controls.

Sequences of proteins named here, by UniProt entry; tags and fusion partners are left off. A change or cut given only in a name is not applied to a line headed by its entry.
UniProt Q53QZ3: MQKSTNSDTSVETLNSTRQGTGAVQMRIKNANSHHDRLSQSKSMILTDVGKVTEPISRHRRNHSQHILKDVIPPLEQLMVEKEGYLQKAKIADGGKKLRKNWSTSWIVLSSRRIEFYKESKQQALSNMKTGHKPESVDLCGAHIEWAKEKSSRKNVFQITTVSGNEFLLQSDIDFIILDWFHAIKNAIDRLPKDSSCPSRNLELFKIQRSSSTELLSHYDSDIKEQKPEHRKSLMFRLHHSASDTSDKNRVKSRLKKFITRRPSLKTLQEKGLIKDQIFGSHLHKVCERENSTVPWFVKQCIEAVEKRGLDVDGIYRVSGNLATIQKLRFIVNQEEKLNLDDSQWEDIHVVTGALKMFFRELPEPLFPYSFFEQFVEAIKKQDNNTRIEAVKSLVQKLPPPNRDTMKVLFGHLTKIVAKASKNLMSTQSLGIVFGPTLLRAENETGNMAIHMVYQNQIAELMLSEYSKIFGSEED
UniProt Q58EX7: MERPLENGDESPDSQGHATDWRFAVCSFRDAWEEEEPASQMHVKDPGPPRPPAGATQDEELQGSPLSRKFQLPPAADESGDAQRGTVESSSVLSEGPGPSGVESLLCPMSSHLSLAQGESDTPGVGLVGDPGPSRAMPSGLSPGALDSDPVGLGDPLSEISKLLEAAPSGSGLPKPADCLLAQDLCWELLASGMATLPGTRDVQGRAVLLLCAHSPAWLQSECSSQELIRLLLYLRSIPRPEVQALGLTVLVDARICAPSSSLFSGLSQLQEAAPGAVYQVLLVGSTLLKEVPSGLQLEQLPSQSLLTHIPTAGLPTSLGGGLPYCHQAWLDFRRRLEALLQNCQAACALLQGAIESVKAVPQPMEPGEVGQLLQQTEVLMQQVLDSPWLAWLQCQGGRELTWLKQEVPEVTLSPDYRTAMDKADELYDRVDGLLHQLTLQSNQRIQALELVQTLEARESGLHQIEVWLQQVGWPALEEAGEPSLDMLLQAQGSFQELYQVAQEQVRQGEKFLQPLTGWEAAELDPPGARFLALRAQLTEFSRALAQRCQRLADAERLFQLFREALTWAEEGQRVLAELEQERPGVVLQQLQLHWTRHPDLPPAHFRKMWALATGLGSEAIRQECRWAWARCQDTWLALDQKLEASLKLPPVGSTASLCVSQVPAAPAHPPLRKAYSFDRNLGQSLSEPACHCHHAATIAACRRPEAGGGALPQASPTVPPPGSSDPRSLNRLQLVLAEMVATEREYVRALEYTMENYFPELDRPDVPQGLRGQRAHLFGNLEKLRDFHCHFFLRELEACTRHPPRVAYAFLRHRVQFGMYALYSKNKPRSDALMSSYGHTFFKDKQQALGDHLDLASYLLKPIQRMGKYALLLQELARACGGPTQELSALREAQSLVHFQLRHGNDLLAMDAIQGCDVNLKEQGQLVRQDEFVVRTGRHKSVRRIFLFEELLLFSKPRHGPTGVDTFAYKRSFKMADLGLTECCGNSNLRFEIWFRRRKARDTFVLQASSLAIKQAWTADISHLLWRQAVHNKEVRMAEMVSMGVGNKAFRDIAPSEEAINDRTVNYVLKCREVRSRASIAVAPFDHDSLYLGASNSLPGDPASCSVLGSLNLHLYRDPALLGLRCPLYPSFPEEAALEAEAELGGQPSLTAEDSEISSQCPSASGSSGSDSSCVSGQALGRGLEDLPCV
UniProt Q4G0J3: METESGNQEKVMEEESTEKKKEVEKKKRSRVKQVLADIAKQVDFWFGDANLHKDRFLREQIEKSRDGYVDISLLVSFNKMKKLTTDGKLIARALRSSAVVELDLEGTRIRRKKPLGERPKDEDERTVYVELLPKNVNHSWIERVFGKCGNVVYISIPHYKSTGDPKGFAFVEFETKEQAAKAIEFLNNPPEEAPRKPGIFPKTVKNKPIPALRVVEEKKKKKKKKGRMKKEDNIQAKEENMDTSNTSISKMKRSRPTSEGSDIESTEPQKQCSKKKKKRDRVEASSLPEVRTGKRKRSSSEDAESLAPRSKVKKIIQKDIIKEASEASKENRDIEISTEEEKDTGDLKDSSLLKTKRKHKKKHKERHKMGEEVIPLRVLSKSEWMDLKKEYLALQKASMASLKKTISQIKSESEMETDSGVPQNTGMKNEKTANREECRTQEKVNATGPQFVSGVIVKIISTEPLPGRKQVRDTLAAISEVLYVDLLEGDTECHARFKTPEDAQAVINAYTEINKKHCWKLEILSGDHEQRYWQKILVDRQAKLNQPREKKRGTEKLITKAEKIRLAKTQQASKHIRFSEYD
UniProt Q5T0U0: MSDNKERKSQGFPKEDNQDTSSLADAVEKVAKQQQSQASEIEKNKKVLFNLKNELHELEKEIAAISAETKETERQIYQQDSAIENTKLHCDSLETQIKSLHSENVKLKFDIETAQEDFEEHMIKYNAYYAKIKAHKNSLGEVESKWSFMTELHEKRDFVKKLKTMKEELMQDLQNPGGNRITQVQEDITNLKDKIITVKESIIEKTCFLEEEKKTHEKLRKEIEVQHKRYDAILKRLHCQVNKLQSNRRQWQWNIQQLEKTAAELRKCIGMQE
UniProt Q5JUR7: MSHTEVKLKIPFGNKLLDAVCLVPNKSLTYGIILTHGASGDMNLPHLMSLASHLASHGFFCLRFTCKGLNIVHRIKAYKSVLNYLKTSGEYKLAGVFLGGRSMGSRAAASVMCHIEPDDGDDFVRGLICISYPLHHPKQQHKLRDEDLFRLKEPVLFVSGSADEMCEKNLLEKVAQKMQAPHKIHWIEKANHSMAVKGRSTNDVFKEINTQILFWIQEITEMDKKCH
UniProt Q5VU43: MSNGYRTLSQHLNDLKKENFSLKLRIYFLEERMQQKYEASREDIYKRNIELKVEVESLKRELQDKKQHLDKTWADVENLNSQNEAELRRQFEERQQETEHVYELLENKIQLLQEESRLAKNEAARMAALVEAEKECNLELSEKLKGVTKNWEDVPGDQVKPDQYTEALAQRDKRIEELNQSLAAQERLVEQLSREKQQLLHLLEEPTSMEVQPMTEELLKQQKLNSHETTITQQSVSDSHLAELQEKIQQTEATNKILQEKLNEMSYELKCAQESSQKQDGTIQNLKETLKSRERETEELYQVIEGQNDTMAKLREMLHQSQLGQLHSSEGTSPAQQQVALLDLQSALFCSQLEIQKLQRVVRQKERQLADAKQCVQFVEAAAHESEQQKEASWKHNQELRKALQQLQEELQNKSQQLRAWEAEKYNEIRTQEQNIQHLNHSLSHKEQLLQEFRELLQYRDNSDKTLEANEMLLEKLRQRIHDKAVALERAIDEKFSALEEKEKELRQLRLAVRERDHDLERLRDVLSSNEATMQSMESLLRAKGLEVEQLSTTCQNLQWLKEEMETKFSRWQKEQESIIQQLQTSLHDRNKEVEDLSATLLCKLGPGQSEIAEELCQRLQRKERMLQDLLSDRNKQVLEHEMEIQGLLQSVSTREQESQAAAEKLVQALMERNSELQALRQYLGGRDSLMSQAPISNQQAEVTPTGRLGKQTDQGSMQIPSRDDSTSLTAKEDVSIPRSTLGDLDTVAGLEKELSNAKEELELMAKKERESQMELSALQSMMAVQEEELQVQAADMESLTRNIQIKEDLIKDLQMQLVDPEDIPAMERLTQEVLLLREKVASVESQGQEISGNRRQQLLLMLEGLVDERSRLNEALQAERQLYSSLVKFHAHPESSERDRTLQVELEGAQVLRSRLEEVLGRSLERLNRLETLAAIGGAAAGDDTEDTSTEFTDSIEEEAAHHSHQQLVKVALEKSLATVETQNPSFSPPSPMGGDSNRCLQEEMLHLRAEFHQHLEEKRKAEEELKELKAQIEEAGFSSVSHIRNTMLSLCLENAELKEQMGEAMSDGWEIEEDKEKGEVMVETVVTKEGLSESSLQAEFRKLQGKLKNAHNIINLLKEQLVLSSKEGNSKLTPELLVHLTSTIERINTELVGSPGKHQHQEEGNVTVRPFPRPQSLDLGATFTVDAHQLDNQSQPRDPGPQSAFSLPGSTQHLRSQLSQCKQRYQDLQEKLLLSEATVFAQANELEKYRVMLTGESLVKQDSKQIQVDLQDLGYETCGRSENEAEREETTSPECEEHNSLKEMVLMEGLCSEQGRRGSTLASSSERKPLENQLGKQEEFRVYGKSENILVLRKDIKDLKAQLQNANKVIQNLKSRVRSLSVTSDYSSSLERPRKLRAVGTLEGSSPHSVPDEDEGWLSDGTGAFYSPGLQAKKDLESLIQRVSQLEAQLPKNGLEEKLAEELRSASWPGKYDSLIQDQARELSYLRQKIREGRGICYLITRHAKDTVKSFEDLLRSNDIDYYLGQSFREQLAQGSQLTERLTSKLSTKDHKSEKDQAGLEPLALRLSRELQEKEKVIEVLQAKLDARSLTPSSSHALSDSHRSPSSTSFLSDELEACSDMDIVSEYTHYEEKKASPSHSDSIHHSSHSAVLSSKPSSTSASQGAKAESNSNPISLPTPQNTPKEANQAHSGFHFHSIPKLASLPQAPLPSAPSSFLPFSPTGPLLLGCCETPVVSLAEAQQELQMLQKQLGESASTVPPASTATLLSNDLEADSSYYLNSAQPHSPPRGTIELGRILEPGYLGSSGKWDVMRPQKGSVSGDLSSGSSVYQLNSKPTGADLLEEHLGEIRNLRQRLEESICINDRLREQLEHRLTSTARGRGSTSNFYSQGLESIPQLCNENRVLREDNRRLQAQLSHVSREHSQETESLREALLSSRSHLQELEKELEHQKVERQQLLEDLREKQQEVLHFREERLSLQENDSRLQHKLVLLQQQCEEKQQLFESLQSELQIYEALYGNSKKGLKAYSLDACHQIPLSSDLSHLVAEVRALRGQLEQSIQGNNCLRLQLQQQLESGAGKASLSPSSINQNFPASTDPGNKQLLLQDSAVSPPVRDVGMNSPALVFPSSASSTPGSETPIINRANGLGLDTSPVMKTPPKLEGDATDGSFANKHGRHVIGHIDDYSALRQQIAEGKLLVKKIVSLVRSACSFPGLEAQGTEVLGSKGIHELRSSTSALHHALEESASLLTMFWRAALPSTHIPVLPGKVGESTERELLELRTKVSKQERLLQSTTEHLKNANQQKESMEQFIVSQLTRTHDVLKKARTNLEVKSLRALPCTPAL
UniProt Q5T6L9: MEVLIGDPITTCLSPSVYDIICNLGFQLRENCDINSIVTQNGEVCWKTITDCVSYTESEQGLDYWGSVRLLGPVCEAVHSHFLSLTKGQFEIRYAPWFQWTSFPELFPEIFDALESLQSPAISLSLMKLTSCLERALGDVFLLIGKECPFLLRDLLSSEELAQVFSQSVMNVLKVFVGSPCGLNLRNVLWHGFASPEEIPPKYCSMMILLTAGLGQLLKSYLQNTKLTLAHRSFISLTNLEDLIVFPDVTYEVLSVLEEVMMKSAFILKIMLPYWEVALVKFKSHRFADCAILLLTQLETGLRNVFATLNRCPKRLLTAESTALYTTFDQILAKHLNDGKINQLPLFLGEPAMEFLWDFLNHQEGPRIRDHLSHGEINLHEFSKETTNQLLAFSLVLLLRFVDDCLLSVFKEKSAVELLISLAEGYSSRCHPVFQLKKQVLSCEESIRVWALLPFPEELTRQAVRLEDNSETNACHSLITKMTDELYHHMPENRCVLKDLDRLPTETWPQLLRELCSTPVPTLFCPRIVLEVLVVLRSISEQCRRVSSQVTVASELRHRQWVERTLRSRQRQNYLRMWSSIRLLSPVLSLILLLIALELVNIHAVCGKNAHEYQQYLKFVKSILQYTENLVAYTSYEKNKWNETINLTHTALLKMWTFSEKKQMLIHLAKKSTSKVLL
UniProt Q5U649: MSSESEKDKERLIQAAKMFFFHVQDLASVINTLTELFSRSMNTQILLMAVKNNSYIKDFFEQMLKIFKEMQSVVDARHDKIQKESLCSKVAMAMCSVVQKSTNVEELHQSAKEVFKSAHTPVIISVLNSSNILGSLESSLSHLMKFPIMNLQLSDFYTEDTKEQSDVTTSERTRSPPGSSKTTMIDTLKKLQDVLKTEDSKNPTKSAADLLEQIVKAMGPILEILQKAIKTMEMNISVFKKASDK
UniProt Q5HYI8: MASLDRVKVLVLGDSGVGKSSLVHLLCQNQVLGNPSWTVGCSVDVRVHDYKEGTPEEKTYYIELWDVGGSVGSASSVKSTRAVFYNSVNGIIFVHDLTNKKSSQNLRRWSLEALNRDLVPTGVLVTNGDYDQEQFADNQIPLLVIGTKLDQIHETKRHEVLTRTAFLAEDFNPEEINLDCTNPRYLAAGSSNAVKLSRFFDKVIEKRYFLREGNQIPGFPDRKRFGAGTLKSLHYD

compound: CN[C@@H]1C[C@H]2O[C@@](C)([C@@H]1OC)n1c3ccccc3c3c4c(c5c6ccccc6n2c5c31)C(=O)NC4 [staurosporine]; assay: log2 fold change of tryptic peptide abundance, ligand vs vehicle (limited proteolysis) (log2 ratio); higher = more trypsin-susceptible (destabilized); settings: ligand concentration: 20 uM; sample: K562 cleared lysate; digestion: 4 min, 22 C (HT-PELSA RT4min, Orbitrap Astral)

Question: For “ARHGAP15 (peptide sequence: SMILTDVGK, peptide start residue: 43) (UniProt Q53QZ3)”, which log2 fold change is on record?
Answer: The log2 fold change was 0.33.

Question: For “PLEKHG4 (peptide sequence: FAVCSFR, peptide start residue: 23) (UniProt Q58EX7)”, which log2 fold change is on record?
Answer: Its log2 fold change is -0.117.

Question: How did the log2 fold change turn out when “LARP7 (peptide sequence: NVNHSWIER, peptide start residue: 135) (UniProt Q4G0J3)” was run?
Answer: Its log2 fold change is -0.438.

Question: With “HERC4 (peptide sequence: FSGVDMNAAR, peptide start residue: 455) (UniProt Q5GLZ8)” as the target, how does the log2 fold change read?
Answer: Its log2 fold change is 0.334.

Question: How did the log2 fold change turn out when “COBLL1 (peptide sequence: SVHAAPNPAPK, peptide start residue: 887) (UniProt Q53SF7)” was run?
Answer: The log2 fold change was 0.503.

Question: For “UniProt Q5T0U0 (peptide sequence: SLHSENVK, peptide start residue: 99)”, which log2 fold change is on record?
Answer: Its log2 fold change is 0.0891.

Question: “UniProt Q5JUR7 (peptide sequence: LRDEDLFR, peptide start residue: 143)” was tested. Which log2 fold change did it give?
Answer: Its log2 fold change is 0.403.

Question: How did the log2 fold change turn out when “PDE4DIP (peptide sequence: RQQLLLMLEGLVDER, peptide start residue: 856) (UniProt Q5VU43)” was run?
Answer: The log2 fold change was 1.14.

Question: With “ERMARD (peptide sequence: MTDELYHHMPENR, peptide start residue: 482) (UniProt Q5T6L9)” as the target, how does the log2 fold change read?
Answer: Its log2 fold change is -0.165.

Question: Which log2 fold change does the source give for “C12orf60 (peptide sequence: AMGPILEILQK, peptide start residue: 217) (UniProt Q5U649)” here?
Answer: The log2 fold change was 0.317.

Question: Which log2 fold change does the source give for “RABL3 (peptide sequence: AVFYNSVNGIIFVHDLTNKK, peptide start residue: 82) (UniProt Q5HYI8)” here?
Answer: The log2 fold change was -0.768.
